# From the supplement of paper PMC8728848
# Some of the results follow.
# Tests used:
# Test in all cases: glycan array binding signal (z-score within array); higher = stronger binding
# Details in all cases: glycan notation: IUPAC condensed, linker removed
# [1] = biological target: Man(a1-2)Man(a1-3)[Man(a1-2)Man(a1-6)]Man(a1-6)[Man(a1-2)Man(a1-2)Man(a1-3)]Man
# In short: (§1)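 Glycan array data were curated from 3228 arrays in the Consortium for Functional Glycomics database and kept only where the protein sequence was available. Glycan names were converted to IUPAC-condensed notation, and columns mapping to the same glycan were averaged. The binding signal is a within-array Z-score, averaged across arrays of the same protein sequence at different concentrations or buffers and across linkers. Negative Z-scores can be read as non-binding.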
# [2] = biological target: Man(a1-2)Man(a1-3)[Man(a1-2)Man(a1-6)]Man(a1-6)[Man(a1-2)Man(a1-2)Man(a1-3)]Man(b1-4)GlcNAc(b1-4)GlcNAc
# In short: as §1
# [3] = biological target: Man(a1-2)Man(a1-3)[Man(a1-6)]Man(a1-6)[Man(a1-2)Man(a1-3)]Man(b1-4)GlcNAc(b1-4)GlcNAc
# In short: as §1
# [4] = biological target: Man(a1-2)Man(a1-6)[Man(a1-3)]Man(a1-6)[Man(a1-2)Man(a1-2)Man(a1-3)]Man
# In short: as §1
# [5] = biological target: Man(a1-2)Man(a1-6)[Man(a1-3)]Man(a1-6)[Man(a1-2)Man(a1-2)Man(a1-3)]Man(b1-4)GlcNAc(b1-4)GlcNAc
# In short: as §1
# [6] = biological target: Man(a1-3)[Man(a1-6)]Man
# In short: as §1
# [7] = biological target: Man(a1-3)[Man(a1-6)]Man(a1-6)[Man(a1-2)Man(a1-3)]Man(b1-4)GlcNAc(b1-4)GlcNAc
# In short: as §1
# [8] = biological target: Man(a1-3)[Man(a1-6)]Man(a1-6)[Man(a1-3)]Man
# In short: as §1
# [9] = biological target: Man(a1-3)[Man(a1-6)]Man(a1-6)[Man(a1-3)]Man(b1-4)GlcNAc(b1-4)GlcNAc
# In short: as §1
# [10] = biological target: Man(a1-3)[Man(a1-6)]Man(b1-4)GlcNAc(b1-4)GlcNAc
# In short: as §1
# [11] = biological target: Man(a1-3)[Man(a1-6)]Man(b1-4)GlcNAc(b1-4)[Fuc(a1-6)]GlcNAc
# In short: as §1
# [12] = biological target: Man(a1-6)Man
# In short: as §1
# [13] = biological target: Man(b1-4)GlcNAc
# In short: as §1
# [14] = biological target: MurNAc(b1-4)GlcNAc
# In short: as §1
# [15] = biological target: Neu5Ac(a2-3)Gal
# In short: as §1
# [16] = biological target: Neu5Ac(a2-3)Gal(b1-3)GalNAc
# In short: as §1
# [17] = biological target: Neu5Ac(a2-3)Gal(b1-3)GalNAc(b1-3)Gal(a1-4)Gal(b1-4)Glc
# In short: as §1
# [18] = biological target: Neu5Ac(a2-3)Gal(b1-3)GalNAc(b1-4)Gal(b1-4)Glc
# In short: as §1
# [19] = biological target: Neu5Ac(a2-3)Gal(b1-3)GalNAc(b1-4)[Neu5Ac(a2-3)]Gal(b1-4)Glc
# In short: as §1
# [20] = biological target: Neu5Ac(a2-3)Gal(b1-3)GalNAc(b1-4)[Neu5Ac(a2-8)Neu5Ac(a2-3)]Gal(b1-4)Glc
# In short: as §1
# [21] = biological target: Neu5Ac(a2-3)Gal(b1-3)GalNAc6S
# In short: as §1
# [22] = biological target: Neu5Ac(a2-3)Gal(b1-3)GlcNAc
# In short: as §1
# [23] = biological target: Neu5Ac(a2-3)Gal(b1-3)GlcNAc(b1-2)Man
# In short: as §1
# [24] = biological target: Neu5Ac(a2-3)Gal(b1-3)GlcNAc(b1-2)Man(a1-3)[GlcNAc(b1-4)][Neu5Ac(a2-3)Gal(b1-3)GlcNAc(b1-2)Man(a1-6)]Man(b1-4)GlcNAc(b1-4)GlcNAc
# In short: as §1
# [25] = biological target: Neu5Ac(a2-3)Gal(b1-3)GlcNAc(b1-2)Man(a1-3)[Neu5Ac(a2-3)Gal(b1-3)GlcNAc(b1-2)Man(a1-6)]Man(b1-4)GlcNAc(b1-4)GlcNAc
# In short: as §1
# [26] = biological target: Neu5Ac(a2-3)Gal(b1-3)GlcNAc(b1-2)[Neu5Ac(a2-3)Gal(b1-3)GlcNAc(b1-4)]Man(a1-6)[Neu5Ac(a2-3)Gal(b1-3)GlcNAc(b1-2)Man(a1-3)]Man(b1-4)GlcNAc(b1-4)GlcNAc
# In short: as §1
# [27] = biological target: Neu5Ac(a2-3)Gal(b1-3)GlcNAc(b1-3)Gal(b1-3)GlcNAc
# In short: as §1
# [28] = biological target: Neu5Ac(a2-3)Gal(b1-3)GlcNAc(b1-3)Gal(b1-4)GlcNAc
# In short: as §1
# [29] = biological target: Neu5Ac(a2-3)Gal(b1-3)GlcNAc(b1-3)GalNAc
# In short: as §1
# [30] = biological target: Neu5Ac(a2-3)Gal(b1-3)GlcNAc(b1-6)GalNAc
# In short: as §1
# [31] = biological target: Neu5Ac(a2-3)Gal(b1-3)GlcNAc6S
# In short: as §1
# [32] = biological target: Neu5Ac(a2-3)Gal(b1-3)[Fuc(a1-4)]GlcNAc
# In short: as §1
# [33] = biological target: Neu5Ac(a2-3)Gal(b1-3)[Fuc(a1-4)]GlcNAc(b1-3)Gal(b1-3)[Fuc(a1-4)]GlcNAc
# In short: as §1
# [34] = biological target: Neu5Ac(a2-3)Gal(b1-3)[Fuc(a1-4)]GlcNAc(b1-3)Gal(b1-4)[Fuc(a1-3)]GlcNAc
# In short: as §1
# [35] = biological target: Neu5Ac(a2-3)Gal(b1-3)[GlcNAc(b1-6)]GalNAc
# In short: as §1
# [36] = biological target: Neu5Ac(a2-3)Gal(b1-3)[Neu5Ac(a2-6)]GalNAc
# In short: as §1
# [37] = biological target: Neu5Ac(a2-3)Gal(b1-3)[Neu5Ac(a2-6)]GlcNAc(b1-3)[Fuc(a1-3)[Gal(b1-4)]GlcNAc(b1-6)]Gal(b1-4)Glc
# In short: as §1
binder,measurement,setting,value
Vd7LysM (Verticillium dahliae) (protein) RRGPEPKYPPAAGTSSYCSYWVDYEGDKSCSRVLEDNVVVLKDFARWNPTVGADCSGIKAGNSYCVEAFGEPEPIEVTTTTRAATTTTQPTATTTTFANGIATPQPTQSGMVTNCNKFHWIAEGVSCSQVISFQKITLADFVKWNPSVKSDCSGMWAGVNVCVGVVGSSTDTAKPTTTAPSNGVVTPQPTQPSMVTNCNKFHWIAKGVTCQQVISYQKISLADFVKWNPSVLSDCSGMWAEVQVCVGVIGSTPTTLATTTTTAGNGVSTPLPTQPGMVTNCAKFHWVAKGVTCNQIYSFQKITLEQFVSYNPTVKSDCSGMQAEVQVCVGLIAGTTPTTTRPPTTTAPGNGVSTPQPTQPGMVTNCAKFHWVAKGVTCNQIYSFQKITLEQFVSFNPTVKSDCTGMQAEVNVCVGLIGGNPTPTQTGNGIATPTPIQPGMVSNCKKFHWIAQGVTCQQVISFQKITLADFVKWNTGVGSDCRTMWAETNVCVGV,glycan array binding signal (z-score),[1],-1.09
same,glycan array binding signal (z-score),[2],-0.549
same,glycan array binding signal (z-score),[3],0.643
same,glycan array binding signal (z-score),[4],-1.1
same,glycan array binding signal (z-score),[5],-1.7
same,glycan array binding signal (z-score),[6],-0.828
same,glycan array binding signal (z-score),[7],0.416
same,glycan array binding signal (z-score),[8],0.074
same,glycan array binding signal (z-score),[9],-0.516
same,glycan array binding signal (z-score),[10],0.486
same,glycan array binding signal (z-score),[11],-1.68
same,glycan array binding signal (z-score),[12],1.36
same,glycan array binding signal (z-score),[13],1.28
same,glycan array binding signal (z-score),[14],-0.59
same,glycan array binding signal (z-score),[15],-0.062
same,glycan array binding signal (z-score),[16],0.266
same,glycan array binding signal (z-score),[17],-0.295
same,glycan array binding signal (z-score),[18],-1.53
same,glycan array binding signal (z-score),[19],-1.04
same,glycan array binding signal (z-score),[20],-1.16
same,glycan array binding signal (z-score),[21],-0.342
same,glycan array binding signal (z-score),[22],-0.499
same,glycan array binding signal (z-score),[23],-1.16
same,glycan array binding signal (z-score),[24],-0.378
same,glycan array binding signal (z-score),[25],0.034
same,glycan array binding signal (z-score),[26],0.591
same,glycan array binding signal (z-score),[27],1.7
same,glycan array binding signal (z-score),[28],1.24
same,glycan array binding signal (z-score),[29],-0.664
same,glycan array binding signal (z-score),[30],-0.432
same,glycan array binding signal (z-score),[31],-0.528
same,glycan array binding signal (z-score),[32],-0.158
same,glycan array binding signal (z-score),[33],-0.022
same,glycan array binding signal (z-score),[34],-0.443
same,glycan array binding signal (z-score),[35],-0.402
same,glycan array binding signal (z-score),[36],-0.762
same,glycan array binding signal (z-score),[37],-0.198
